Measurements reported in PubChem BioAssay AID504793 (Drosophila RNAi Screening Center, 2011)
The deposit covers about 23,000 reagents; shown is an unselected part of those that have a named target and a result. Over the whole deposit, 62 (0.27%) got an active call. 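Calls come from follow-up tests whose scores are not deposited, so confirmed genes may have low counts here; counts are not normalised per plate.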 Raw values vary from plate to plate and are shown uncorrected. Reagent sequences are not shown.

Screen: 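Genes required for cells to halt at G2/M after double-strand DNA breaks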 (primary screen)
Cells: Drosophila S2R+ cells
Reagent: long dsRNA against Drosophila genes, about 0.25 µg dsRNA per well
Duration: 4 days of dsRNA, then 4 hours of drug before read-out
Conditions: doxorubicin 0.5 µM for 4 hours to cause double-strand breaks, in cells also given a low, harmless dose of dsRNA against nbs to sensitise the assay
Measured: 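Mitotic index as the number of phospho-histone H3-positive cells in each well following doxorubicin, given as raw counts without normalisation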
Reading the numbers: mitotic cells: higher = more cells in mitosis, weaker G2 arrest
Call rule: 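a call needs confirmation in secondary tests, with other dsRNAs and a check of mitotic timing without damage, not just a high primary count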
Calls: active = confirmed in follow-up tests; inactive = not confirmed

CG9902 [DRSC20212] → mitotic cells, replicate 1: 12; call: inactive
CG9902 [DRSC24871] → mitotic cells, replicate 1: 11; call: inactive
CG31404 [DRSC15497] → mitotic cells, replicate 1: 8; call: inactive
CG31404 [DRSC28438] → mitotic cells, replicate 1: 2; call: inactive
CG10700 [DRSC02096] → mitotic cells, replicate 1: 2; call: inactive
Hsp27 (Heat shock protein 27) [DRSC11190] → mitotic cells, replicate 1: 3; call: inactive
Hsp27 (Heat shock protein 27) [DRSC26877] → mitotic cells, replicate 1: 4; call: inactive
AttB (Attacin-B) [DRSC06734] → mitotic cells, replicate 1: 5; call: inactive
AttB (Attacin-B) [DRSC28997] → mitotic cells, replicate 1: 6; call: inactive
Rel (Relish) [DRSC16819] → mitotic cells, replicate 1: 6; call: inactive
Dronc (Death regulator Nedd2-like caspase) [DRSC11231] → mitotic cells, replicate 1: 16; call: inactive
CG15729 (retired record) [DRSC19695] → mitotic cells, replicate 1: 8; call: inactive
CG15729 (retired record) [DRSC29662] → mitotic cells, replicate 1: 8; call: inactive
Dop1R1 (Dopamine 1-like receptor 1) [DRSC13021] → mitotic cells, replicate 1: 5; call: inactive
Dop1R1 (Dopamine 1-like receptor 1) [DRSC16652] → mitotic cells, replicate 1: 4; call: inactive
Dop1R1 (Dopamine 1-like receptor 1) [DRSC23514] → mitotic cells, replicate 1: 7; call: inactive
PTPMT1 (Protein tyrosine phosphatase, mitochondrial 1) [DRSC14235] → mitotic cells, replicate 1: 7; call: inactive
CG15155 [DRSC02456] → mitotic cells, replicate 1: 9; call: inactive
CG14687 [DRSC14910] → mitotic cells, replicate 1: 5; call: inactive
CG14687 [DRSC29639] → mitotic cells, replicate 1: 7; call: inactive
Nup43 (Nucleoporin 43kD) [DRSC16279] → mitotic cells, replicate 1: 12; call: inactive
nmd (no mitochondrial derivative) [DRSC02856] → mitotic cells, replicate 1: 5; call: inactive
nmd (no mitochondrial derivative) [DRSC27985] → mitotic cells, replicate 1: 6; call: inactive
mRpL54 (mitochondrial ribosomal protein L54) [DRSC04545] → mitotic cells, replicate 1: 6; call: inactive
Nplp2 (Neuropeptide-like precursor 2) [DRSC09824] → mitotic cells, replicate 1: 2; call: inactive
CG9281 [DRSC20179] → mitotic cells, replicate 1: 8; call: inactive
CG9281 [DRSC24522] → mitotic cells, replicate 1: 4; call: inactive
Drsl4 (Drosomycin-like 4) [DRSC08034] → mitotic cells, replicate 1: 12; call: inactive
Drsl4 (Drosomycin-like 4) [DRSC27159] → mitotic cells, replicate 1: 11; call: inactive
BaraB (Baramicin B) [DRSC06420] → mitotic cells, replicate 1: 6; call: inactive
Pih1D1 (PIH1 domain containing 1) [DRSC02897] → mitotic cells, replicate 1: 2; call: inactive
Pih1D1 (PIH1 domain containing 1) [DRSC28212] → mitotic cells, replicate 1: 11; call: inactive
Obp58c (Odorant-binding protein 58c) [DRSC04166] → mitotic cells, replicate 1: 2; call: inactive
Or1a (Odorant receptor 1a) [DRSC18689] → mitotic cells, replicate 1: 7; call: inactive
